{"source": "PubChem BioAssay AID540276", "about": "(National Center for Advancing Translational Sciences (NCATS), 2011)", "note": "In all, about 300,000 compounds went through this assay and about 5,400 (1.8%) were called active. The inconclusive results got no clear call from the source; some entries with a clear call stand among them for comparison. Calls follow the shape of the full dose curve; tested in HEK293 cells. Potencies of inconclusive entries are doubtful fits and often do not repeat. % is scaled to controls: 0 for no effect and ±100 for the full control effect; potency is read from the fitted curve at half-maximal effect.", "data": [{"assay": "qHTS for inhibitors of binding or entry into cells for Marburg Virus", "settings": "Marburg virus pseudotyped entry inhibition, cell reporter; activity change, negative = inhibition: at 37.8 µM (top of the series) unless noted", "values": [{"smiles": "C/C(=N\\NS(=O)(=O)c1ccc(C)c([N+](=O)[O-])c1)c1cc2ccccc2o1", "activity change, negative = inhibition": "inactive: -2.28%"}, {"smiles": "Cc1ccc(S(=O)(=O)N(C)c2ccc(C(=O)NCCc3ccccc3)cc2)cc1", "Potency": "inconclusive: 6.31 µM [activator, single point]"}, {"smiles": "O=C(O)CCC(NC(=O)c1ccc(Cl)cc1)C(=O)O", "note": "(stereo not given)", "activity change, negative = inhibition": "inactive: 2.4% [at 46.1 µM]"}, {"smiles": "Cn1cnnc1SCC(=O)Nc1cc(S(=O)(=O)N2CCCCC2)ccc1Cl", "activity change, negative = inhibition": "inactive: 6.3% [at 46.1 µM]"}, {"smiles": "CCCn1c(SCC(=O)NNC(=O)c2ccc(OC)cc2)nnc1C(C)C", "activity change, negative = inhibition": "inactive: 7.27% [at 46.1 µM]"}, {"smiles": "O=C(N/N=C/c1ccc(-c2ccc(Br)cc2)o1)c1ccc2c(c1)OCO2", "activity change, negative = inhibition": "inactive: -18.3% [at 46.1 µM]"}, {"smiles": "CCCCNCCCOc1cccc(Cl)c1", "Potency": "inconclusive: 29.1 µM [inhibitor, single point]"}, {"smiles": "CC(Cc1cccs1)NC(=S)Nc1ccc(Cl)cc1", "note": "(stereo not given)", "Potency": "inconclusive: 8.91 µM [inhibitor, partial curve, poor fit]"}, {"smiles": "CCOC(=O)c1c(CSc2ccccc2)n(C)c2cc(Br)c(OCC(O)CNC(CO)(CO)CO)cc12", "note": "(stereo not given)", "Potency": "inconclusive: 29.1 µM [inhibitor, single point]"}, {"smiles": "COc1ccc(C(=O)c2ccccc2C(=O)c2ccccc2)cc1", "activity change, negative = inhibition": "inactive: -10.4%"}, {"smiles": "C=CCn1c(SCC(=O)NCC2CCCO2)nc2scc(-c3ccccc3)c2c1=O", "note": "(stereo not given)", "activity change, negative = inhibition": "inactive: 0.146% [at 46.1 µM]"}, {"smiles": "COc1cc(/C=C(/C#N)c2nc3ccccc3[nH]2)ccc1OCc1ccc(C(=O)O)o1", "Potency": "inconclusive: 12.6 µM [activator, single point]"}, {"smiles": "O=C(O)c1ccc2c(=O)n(-c3ccccc3)c(=S)[nH]c2c1", "activity change, negative = inhibition": "inactive: 3.5% [at 46.1 µM]"}, {"smiles": "Cc1cc(C(=O)COC(=O)c2n[nH]c3ccccc23)c(C)n1C", "Potency": "inconclusive: 20.6 µM [inhibitor, single point]"}, {"smiles": "CC(C)CC(=O)NCCc1ccncc1", "Potency": "inconclusive: 29.1 µM [activator, single point]"}, {"smiles": "O=c1[nH]c(CSc2ccccn2)nc2c1cnn2-c1ccccc1", "activity change, negative = inhibition": "inactive: 20.5%"}, {"smiles": "CCOc1cc(-c2c(C#N)c(N)nc3c2CCc2ccccc2-3)ccc1O", "Potency": "inconclusive: 12.6 µM [inhibitor, single point]"}, {"smiles": "CCc1ccccc1NC(=S)NCc1cccn1C", "Potency": "inconclusive: 0.794 µM [activator, full curve, poor fit]"}, {"smiles": "O=c1[nH]c(CN2CCc3ccccc32)nc2scc(-c3cccs3)c12", "Potency": "inconclusive: 35.5 µM [inhibitor, partial curve, poor fit]"}, {"smiles": "CCOC(=O)C1CCN(C(=O)COC(=O)c2ccc(=O)n(Cc3ccccc3)n2)CC1", "activity change, negative = inhibition": "inactive: 20%"}, {"smiles": "Cc1nc(NC(=S)NC(=O)c2cncc(Br)c2)ccc1Br", "activity change, negative = inhibition": "inactive: 6.18% [at 14.2 µM]"}, {"smiles": "CCOC(=O)c1nc(Nc2ccc(C(=O)OC)cc2)c2ccccc2n1", "Potency": "inconclusive: 35.5 µM [inhibitor, single point]"}, {"smiles": "O=c1cc(-c2ccccc2Cl)oc2c(Br)ccc(O)c12", "Potency": "inconclusive: 0.82 µM [activator, partial curve, poor fit]"}, {"smiles": "Cn1c(N)c(C(=O)COC(=O)CC2CC3CCC2C3)c(=O)n(C)c1=O", "note": "(stereo not given)", "Potency": "inconclusive: 31.6 µM [activator, single point]"}, {"smiles": "COc1cc(C(=O)N/N=c2/sc3ccccc3n2C)cc(OC)c1OC", "activity change, negative = inhibition": "inactive: 10.9% [at 46.1 µM]"}, {"smiles": "COc1ccc(-c2nn(-c3ccccc3)cc2/C=N/NC(=O)c2ccc(Br)o2)cc1", "Potency": "inconclusive: 17.8 µM [inhibitor, partial curve, poor fit]"}, {"smiles": "Cc1cccc(NC(=O)c2cccc(Cn3cc(Br)c([N+](=O)[O-])n3)c2)c1C", "Potency": "inconclusive: 35.5 µM [inhibitor, single point]"}, {"smiles": "Cc1ccsc1C(=O)OCC(=O)N1CCN(c2ccccc2)CC1", "Potency": "inconclusive: 11.2 µM [activator, partial curve]"}, {"smiles": "COC(=O)c1ccc(NS(=O)(=O)c2cc(C)ccc2OC)cc1", "Potency": "inconclusive: 11.2 µM [inhibitor, single point]"}, {"smiles": "CN1CCN(C(=S)SCC(=O)Nc2nc(-c3ccccc3)c(-c3ccccc3)o2)CC1", "Potency": "inconclusive: 5.01 µM [inhibitor, partial curve, poor fit]"}, {"smiles": "c1ccc(-c2cn(-c3ccccc3)c3ncnc(NCCCN4CCOCC4)c23)cc1", "Potency": "inconclusive: 8.91 µM [inhibitor, partial curve, poor fit]"}, {"smiles": "O=C(O)CCCC(=O)Nc1ccc(S(=O)(=O)Nc2nccs2)cc1", "Potency": "inconclusive: 12.6 µM [activator, single point]"}, {"smiles": "CC(=O)CSc1nc2ccccc2o1", "Potency": "inconclusive: 1.12 µM [activator, partial curve, poor fit]"}, {"smiles": "COc1cc(NS(=O)(=O)c2ccc(C)cc2)c2ncccc2c1", "Potency": "inconclusive: 23.1 µM [inhibitor, partial curve, poor fit]"}, {"smiles": "S=C(NCCc1ccccc1)N1CCOCC1", "activity change, negative = inhibition": "inactive: -0.445%"}, {"smiles": "Cc1ccccc1Nc1nc2nonc2nc1N1CCOCC1", "Potency": "inconclusive: 7.08 µM [activator, partial curve, poor fit]"}, {"smiles": "CC(C)c1ccc(NC(=O)CSc2n[nH]c(=O)n2C2CC2)cc1", "activity change, negative = inhibition": "inactive: 2.98% [at 46.1 µM]"}, {"smiles": "CSc1ccc(/C=C/C(=O)c2c(O)cc(C)oc2=O)cc1", "activity change, negative = inhibition": "inactive: 8.5% [at 46.1 µM]"}, {"smiles": "CNc1nc(N/N=C/c2ccc([N+](=O)[O-])cc2)nc(Nc2ccccc2)n1", "Potency": "inconclusive: 22.4 µM [inhibitor, single point]"}, {"smiles": "CCNC(=S)NCCN1CCCCC1", "activity change, negative = inhibition": "inactive: 18.4%"}, {"smiles": "CCC(O)(c1ccccc1)C(CN1CCOCC1)c1ccccc1", "note": "(stereo not given)", "activity change, negative = inhibition": "inactive: 8.52% [at 46.1 µM]"}, {"smiles": "C[C@H]1C(=O)N(C)CCN1C(=O)c1ccccc1OC1CCN(S(C)(=O)=O)CC1", "Potency": "inconclusive: 35.5 µM [activator, partial curve, poor fit]"}, {"smiles": "CC(C)Cc1nc2oc3c(Cl)ncnc3c2c2c1CCC2", "Potency": "inconclusive: 29.1 µM [inhibitor, single point]"}, {"smiles": "O=C(Cn1cccc1C(=O)c1ccccc1)NCc1ccccn1", "activity change, negative = inhibition": "inactive: -1.15%"}, {"smiles": "Cc1cccc(-c2nc(-c3ccncc3)no2)c1", "Potency": "inconclusive: 3.16 µM [activator, partial curve]"}, {"smiles": "COc1ccc(Cl)cc1NC(=O)CN1CCC(n2nnc3cc(C)ccc32)CC1", "Potency": "inconclusive: 9.2 µM [inhibitor, partial curve, poor fit]"}, {"smiles": "COc1ccc(CNC(=O)/C=C/c2cc([N+](=O)[O-])ccc2OC(F)F)cc1OC", "activity change, negative = inhibition": "inactive: -5.47%"}, {"smiles": "COC(=O)c1cc(=O)n(CCc2ccc(OC)c(OC)c2)c(=Nc2ccc(F)c(Cl)c2)s1", "activity change, negative = inhibition": "inactive: -1.71%"}, {"smiles": "Cc1ccccc1CCNCc1c(C(=O)O)c(C)n(Cc2c(F)cccc2Cl)c1C", "activity change, negative = inhibition": "inactive: 9.84% [at 46.1 µM]"}, {"smiles": "O=[N+]([O-])c1cc(/C=N/O)ccc1SCc1ccccc1", "activity change, negative = inhibition": "inactive: 6.51%"}, {"smiles": "CCN(CC(=O)Nc1ccc(N2CCOCC2)cc1)C(=O)c1ccc(C(F)(F)F)cc1", "Potency": "inconclusive: 0.631 µM [activator, full curve, poor fit]"}, {"smiles": "C=CCn1c(-c2cccc(OC)c2)nc2nc3ccccc3nc21", "activity change, negative = inhibition": "inactive: 8.08%"}, {"smiles": "COC(=O)c1ccc(N/C=C/C(=O)c2ccccc2)cc1", "Potency": "inconclusive: 4.47 µM [inhibitor, single point]"}, {"smiles": "CC(C)c1cc(C(=O)Nc2cccc(Cl)c2)no1", "Potency": "inconclusive: 0.326 µM [activator, partial curve, poor fit]"}, {"smiles": "CCOC(=O)c1[nH]c(C)c(C(=O)Nc2cc(OC)ccc2OC)c1C", "Potency": "inconclusive: 0.291 µM [inhibitor, full curve, poor fit]"}, {"smiles": "CC(=O)Nc1ccc(S(=O)(=O)n2nc(-c3ccc(C)cc3)nc2N)cc1", "activity change, negative = inhibition": "inactive: -21.6% [at 46.1 µM]"}, {"smiles": "CCOc1cc(/C=C2/C(=N)N3C(=NC2=O)SN=C3S(C)(=O)=O)ccc1OC(=O)c1ccco1", "Potency": "inconclusive: 3.55 µM [activator, single point]"}, {"smiles": "O=C(c1ccc(Nc2cccc(C(F)(F)F)c2)nc1)N1CCCC1", "Potency": "inconclusive: 0.184 µM [activator, single point]"}, {"smiles": "O=C(Oc1cccc([N+](=O)[O-])c1)c1cc(-c2ccccc2)nc2ccccc12", "activity change, negative = inhibition": "inactive: 13.6%"}, {"smiles": "COC(=O)Cc1c(OC)ccn(CCc2c[nH]c3ccccc23)c1=O", "activity change, negative = inhibition": "inactive: -13.6% [at 46.1 µM]"}, {"smiles": "Cc1ccc(C(=O)NC2CCN(Cc3ccccc3)CC2)cc1S(=O)(=O)N1CCOCC1", "activity change, negative = inhibition": "inactive: -21.2%"}, {"smiles": "CCOC(=O)C(=CNc1ccccc1C)C(=O)OCC", "activity change, negative = inhibition": "inactive: 0.717%"}, {"smiles": "CCOc1ccc(Oc2c(/C=N/NC(N)=O)c(C)nn2-c2ccccc2)cc1", "Potency": "inconclusive: 12.6 µM [inhibitor, partial curve, poor fit]"}, {"smiles": "Cc1ccc(N(C(=O)c2csnn2)C(C(=O)NC2CCCCC2)c2cccnc2)cc1", "note": "(stereo not given)", "activity change, negative = inhibition": "inactive: 9.5% [at 46.1 µM]"}, {"smiles": "CNc1cc(Cl)c2nonc2c1[N+](=O)[O-]", "Potency": "inconclusive: 14.1 µM [inhibitor, partial curve, poor fit]"}, {"smiles": "CC1c2c([nH]c3ccccc23)CCC1C(=O)O", "note": "(stereo not given)", "activity change, negative = inhibition": "inactive: 28.4%"}, {"smiles": "OC(COc1ccc(CNCCc2ccccc2F)cc1)CN1CCCCC1", "note": "(stereo not given)", "Potency": "active: 2.31 µM"}, {"smiles": "N#CCCC12CCCCC1=Nc1ccccc12", "note": "(stereo not given)", "activity change, negative = inhibition": "inactive: -20.1%"}, {"smiles": "CCOC(=O)CCCNC(=O)CSc1nnc(-c2ccccc2)c(-c2ccccc2)n1", "Potency": "inconclusive: 35.5 µM [inhibitor, single point]"}, {"smiles": "COc1ccccc1/C=C/c1nc(C#N)c(NC(C)c2ccccc2)o1", "note": "(stereo not given)", "Potency": "inconclusive: 35.5 µM [inhibitor, single point]"}, {"smiles": "CCOc1ccc(NC(=O)c2cnn3c(C(F)F)cc(-c4ccc(C)cc4)nc23)cc1", "activity change, negative = inhibition": "inactive: 2.28% [at 46.1 µM]"}, {"smiles": "C[C@](Cc1ccc(O)c(O)c1)(NN)C(=O)O", "Potency": "inconclusive: 7.3 µM [inhibitor, partial curve, poor fit]"}, {"smiles": "CC(Cc1cccs1)NC(=S)Nc1ccccc1", "note": "(stereo not given)", "Potency": "inconclusive: 35.5 µM [activator, single point]"}, {"smiles": "O=C(CSc1nc2ncccc2[nH]1)NCc1ccccc1", "activity change, negative = inhibition": "inactive: -3.17%"}, {"smiles": "COCCn1c(SCC(=O)Nc2ccc(NC(C)=O)cc2)nc2ccccc2c1=O", "activity change, negative = inhibition": "inactive: 1.04%"}]}]}
